This assay is described as follows: qHTS Assay for Modulators of Lamin A Splicing. As to conditions: HeLa LMNA splicing GFP/RFP minigene ratio, 48 h. The procedure, abridged: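 S3 HeLa stable clones carrying a lamin A-EGFP splicing minigene plus DsRed2 were seeded at 600 cells/well in Opti-MEM with 2% FBS, pin-dosed and incubated 48 h at 37°C. Acumen cytometry (488 nm) gave the GFP/RFP total-intensity ratio.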

Setting [1] is: measured here: RFP viability control channel.
Where [2] appears, read: measured here: GFP splicing reporter channel.

The list shows a part of the results. The main result of the screen is listed elsewhere. These columns were measured beside it and carry no call. Compounds called inactive in the main read-out are mostly missing here. Words in brackets tell the shape of the fitted curve; partial curves, single points and poor fits give uncertain potencies.

Take `CCOC(=O)c1cn(-c2c(Cl)cccc2Cl)c2cc(Cl)c([N+](=O)[O-])cc2c1=O`: under setting [1], the half-maximal activity concentration (AC50) was 1 µM [falling, full curve, poor fit].
As to `CCc1nnc(NC(=O)c2cccc(C(=O)Nc3nnc(CC)s3)n2)s1`, under setting [1], the AC50 was 0.794 µM [rising, full curve].
Still for that read-out and setting: in the case of `O=S(=O)(Nc1cccc(S(=O)(=O)N2CCOCC2)c1)c1ccc(Cl)s1` it was 35.5 µM [falling, single point].
Turning to `Cc1nnc(SCC(=O)Nc2cc(C(C)(C)C)nn2-c2ccccc2)s1`, under setting [1], the AC50 is 35.5 µM [rising, single point].
For `O=C1CS/C(=N/N=C/c2ccccc2OS(=O)(=O)c2ccccc2)N1`, the concentration at half-maximal activity (AC50) by setting is: under setting [2], 17.8 µM [rising, single point]; under setting [1], 17.8 µM [rising, single point].
As to `O=C1CCCN1CCCNC(=S)Nc1ccc(F)cc1`, the half-maximal activity concentration (AC50) under setting [2] is 0.141 µM [rising, full curve, poor fit].
Turning to `O=C(Cn1c(N2CCN(C/C=C/c3ccccc3)CC2)nc2ccccc21)c1ccccc1`, the half-maximal activity concentration (AC50) under setting [1] is 35.5 µM [rising, single point].
On to `Cc1ccc(S(=O)(=O)N2CCC(=O)N(C(COCc3cccc(C)c3)Cc3ccccc3)CC2)cc1` (centres undefined), for which the AC50 is, setting by setting: under setting [2], 8.91 µM [rising, partial curve, poor fit]; under setting [1], 17.8 µM [rising, partial curve].
Consider `CN(C)c1ccc(C(CNS(=O)(=O)c2ccc(F)cc2)N2CCCC2)cc1` (centres undefined), for which the half-maximal activity concentration (AC50) under setting [1] was 3.55 µM [rising, partial curve, poor fit].
Still for that read-out and setting: under `Clc1ccc(-c2nnc(Sc3nc4ccccc4o3)c3ccccc23)cc1` stands 11.2 µM [falling, partial curve].
Regarding `Cc1ccc(C2=Nc3ccccc3N(C(=O)c3ccccc3)C(C)C2)cc1` (centres undefined), the half-maximal activity concentration (AC50) by setting is: under setting [2], 10 µM [rising, partial curve]; under setting [1], 8.91 µM [rising, partial curve].
In the case of `CCCOc1ccc(CC(CC(=O)O)(C(=O)O)C(=O)O)cc1`, under setting [1], the AC50 was 5.62 µM [rising, single point].
As to `Cc1onc(-c2ccccc2)c1C(=O)c1c[nH]c(C(=O)NCCCN2CCOCC2)c1`, under setting [2], the concentration at half-maximal activity (AC50) is 35.5 µM [rising, partial curve, poor fit].
In the case of `CCCCNC(=S)N(C)/N=C/c1c(F)cccc1F`, under setting [2], the AC50 was 11.2 µM [rising, single point].
Take `O=C(OCc1ccccc1)c1ccc2c(c1)-c1ccccc1C2=O`: the AC50 under setting [1] was 12.6 µM [rising, partial curve].
In the case of `CCOc1ccc(S(=O)(=O)N2CCc3ccccc3C2)cc1`, the concentration at half-maximal activity (AC50) under setting [2] was 12.6 µM [rising, single point].
For `COc1ccc(Cl)cc1NC(=O)CNc1ccccc1N1CCOCC1`, the AC50 by setting is: under setting [2], 7.08 µM [rising, full curve, poor fit]; under setting [1], 20 µM [rising, partial curve].
Turning to `CC(O)/C=C/c1ccc2ccccc2n1` (centres undefined), the AC50 under setting [2] was 10 µM [falling, partial curve].
Take `O=C(Cc1coc2ccc3ccccc3c12)N1CCc2ccccc21`: the concentration at half-maximal activity (AC50) is, setting by setting: under setting [2], 12.6 µM [rising, single point]; under setting [1], 12.6 µM [rising, single point].
For the molecule `Cc1nn(C2CCS(=O)(=O)C2)c(Cl)c1/C=C/C(=O)OCC(=O)c1c[nH]c2ccccc12` (centres undefined), the AC50 is 7.08 µM [rising, full curve] under setting [2] and 11.2 µM [rising, partial curve] under setting [1].
Take `O=C(O)c1cc(O)c2c(c1)C(=O)c1cccc(O)c1C2=O`: the AC50 under setting [1] is 12.6 µM [rising, single point].
Regarding `O=C1C=CC(=O)N1c1ccc(OC(F)F)cc1`, the AC50 is, setting by setting: under setting [2], 35.5 µM [rising, single point]; under setting [1], 31.6 µM [rising, single point].
With `O=C(CSc1nc2ccccc2nc1Cc1ccc(Cl)cc1)N1CCN(c2ccccc2F)CC1`, the AC50 under setting [1] was 7.08 µM [falling, full curve, poor fit].
The same measure, in the same setting: under `Cc1ccccc1-n1nnc2c(=O)oc3ccccc3c21` stands 10 µM [rising, partial curve, poor fit].
For the molecule `N#CC(C#N)=C1C=CC=CN1/C(=C\c1ccco1)C(=O)c1ccc(Br)cc1`, the AC50 under setting [2] was 3.98 µM [falling, full curve] and the AC50 under setting [1] was 6.31 µM [falling, full curve].
For `COc1ccc(C(=O)NCCc2nnc(SCC(=O)Nc3ccc(Br)cc3)n2C)cc1`, the AC50 under setting [2] is 12.6 µM [rising, single point].
`CCOc1ccc(-c2cc(C(=O)N3CCN(c4cccc(C)c4)C(C)C3)c3ccccc3n2)cc1` (centres undefined): the concentration at half-maximal activity (AC50) under setting [1] is 2.82 µM [rising, full curve, poor fit].
For the molecule `Cc1ccc(C)c(N2CCN(C(=O)CCCCCn3c(=O)[nH]c4ccccc4c3=O)CC2)c1`, the AC50 was 22.4 µM [falling, partial curve] under setting [2] and 22.4 µM [falling, partial curve, poor fit] under setting [1].
With `O=C(CN(c1cccc(Cl)c1)S(=O)(=O)c1ccc(Cl)cc1)N1CCc2ccccc2C1`, the AC50 is, setting by setting: under setting [2], 12.6 µM [rising, partial curve, poor fit]; under setting [1], 22.4 µM [rising, single point].
Consider `CCCc1cc(C(=O)Nc2sc(C)c(CC)c2C#N)no1`, for which the AC50 under setting [1] was 35.5 µM [rising, partial curve, poor fit].
`CC1CC(C)CN(C(=O)CSc2nc(Cc3cccs3)nc3ccccc23)C1` (centres undefined): under setting [1], the AC50 is 35.5 µM [rising, single point].
Regarding `Cc1ccc(S(=O)(=O)NCCCOC(=O)Nc2ccncc2)cc1`, the half-maximal activity concentration (AC50) under setting [2] was 14.1 µM [rising, single point] and the half-maximal activity concentration (AC50) under setting [1] is 20 µM [rising, single point].
In the case of `CCc1cccc(NC(c2nnc(-c3ccccc3)o2)c2ccc(F)cc2Cl)c1` (centres undefined), the half-maximal activity concentration (AC50) under setting [1] is 35.5 µM [rising, single point].
`CC1CCCCC1NC(=O)CSc1nnc(COc2ccccc2Cl)o1` (centres undefined): the concentration at half-maximal activity (AC50) reads like this: under setting [2], 20 µM [rising, single point]; under setting [1], 14.1 µM [rising, single point].
Regarding `COc1ccccc1-n1cnnc1SCC(=O)Nc1cccnc1Cl`, under setting [1], the AC50 is 0.00282 µM [falling, full curve].
Consider `COc1ccc(OC)c(N/C(=N/C(=S)Nc2ccccc2)Nc2nc(C)cc(C)n2)c1`, for which the concentration at half-maximal activity (AC50) is, setting by setting: under setting [2], 0.0794 µM [falling, full curve]; under setting [1], 0.447 µM [falling, partial curve, poor fit].

The values above are taken from PubChem BioAssay AID1487 (National Center for Advancing Translational Sciences (NCATS), 2009).
